Data taken from PMC6604152.
Results are given in words; binding and its absence hold for the method and conditions named. Binding seen in cells or lysates may run through a third protein. Some binding calls cover weakened binding; strength is not graded here. One block for each molecule: values may come before it.

The chains behind the UniProt entries cited, without tags or fusion partners. Residues count along the entry.
UniProt P35968, residues 20-1356: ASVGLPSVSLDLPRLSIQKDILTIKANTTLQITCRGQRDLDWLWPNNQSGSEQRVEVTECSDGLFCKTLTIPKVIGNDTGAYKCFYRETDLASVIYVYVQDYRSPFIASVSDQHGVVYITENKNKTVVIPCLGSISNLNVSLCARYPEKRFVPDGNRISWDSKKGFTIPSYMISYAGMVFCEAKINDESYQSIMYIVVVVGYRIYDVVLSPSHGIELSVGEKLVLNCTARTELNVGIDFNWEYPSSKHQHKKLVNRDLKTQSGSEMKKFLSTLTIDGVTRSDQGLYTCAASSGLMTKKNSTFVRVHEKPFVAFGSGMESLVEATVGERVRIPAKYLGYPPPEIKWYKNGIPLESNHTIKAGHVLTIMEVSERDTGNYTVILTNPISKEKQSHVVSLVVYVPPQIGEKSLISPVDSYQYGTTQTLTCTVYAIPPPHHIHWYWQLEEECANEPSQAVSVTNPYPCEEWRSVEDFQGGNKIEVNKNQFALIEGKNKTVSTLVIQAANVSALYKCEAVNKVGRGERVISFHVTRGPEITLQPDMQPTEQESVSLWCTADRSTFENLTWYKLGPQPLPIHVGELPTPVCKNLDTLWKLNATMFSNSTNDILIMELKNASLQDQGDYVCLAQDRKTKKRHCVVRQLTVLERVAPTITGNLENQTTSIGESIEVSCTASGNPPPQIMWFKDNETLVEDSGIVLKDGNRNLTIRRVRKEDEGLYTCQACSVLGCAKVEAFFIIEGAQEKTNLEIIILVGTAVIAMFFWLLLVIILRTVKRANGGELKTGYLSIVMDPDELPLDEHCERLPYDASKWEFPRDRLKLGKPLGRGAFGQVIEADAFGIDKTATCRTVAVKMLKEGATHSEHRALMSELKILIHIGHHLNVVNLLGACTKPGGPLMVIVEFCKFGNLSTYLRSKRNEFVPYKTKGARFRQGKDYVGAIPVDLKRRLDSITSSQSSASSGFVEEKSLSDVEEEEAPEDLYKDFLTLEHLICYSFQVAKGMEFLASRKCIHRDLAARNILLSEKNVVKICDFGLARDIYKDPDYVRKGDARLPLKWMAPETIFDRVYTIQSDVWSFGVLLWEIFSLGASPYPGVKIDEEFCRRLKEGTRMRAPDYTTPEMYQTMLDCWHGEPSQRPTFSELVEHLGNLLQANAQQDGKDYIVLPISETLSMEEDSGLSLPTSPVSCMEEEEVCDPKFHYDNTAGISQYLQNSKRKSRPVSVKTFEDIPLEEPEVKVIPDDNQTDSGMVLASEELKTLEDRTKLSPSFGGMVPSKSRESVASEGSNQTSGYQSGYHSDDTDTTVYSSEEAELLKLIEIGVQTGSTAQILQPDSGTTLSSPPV

Assays:
[1] = target: VEGFR2 (human (endogenous in HUVEC)) (UniProt P35968); assay: co-IP; HUVEC lysates in TBS-Nonidet P-40 lysis buffer (20 mM Tris pH 7.4, 150 mM NaCl, 1% NP-40), specific antibodies 12 h at 4 °C, protein G magnetic beads, blots; reciprocal; cells treated with VEGFa, VEGFa/6G, anti-VEGFA antibody, sorafenib, Ki8751 or siRNAs against VEGFR2, VE-cad, β-catenin
[2] = target: T1, VE-cadherin (human (endogenous in HUVEC)), P33151; assay: as above; conditions: remark: other sources report otherwise
T1 chain: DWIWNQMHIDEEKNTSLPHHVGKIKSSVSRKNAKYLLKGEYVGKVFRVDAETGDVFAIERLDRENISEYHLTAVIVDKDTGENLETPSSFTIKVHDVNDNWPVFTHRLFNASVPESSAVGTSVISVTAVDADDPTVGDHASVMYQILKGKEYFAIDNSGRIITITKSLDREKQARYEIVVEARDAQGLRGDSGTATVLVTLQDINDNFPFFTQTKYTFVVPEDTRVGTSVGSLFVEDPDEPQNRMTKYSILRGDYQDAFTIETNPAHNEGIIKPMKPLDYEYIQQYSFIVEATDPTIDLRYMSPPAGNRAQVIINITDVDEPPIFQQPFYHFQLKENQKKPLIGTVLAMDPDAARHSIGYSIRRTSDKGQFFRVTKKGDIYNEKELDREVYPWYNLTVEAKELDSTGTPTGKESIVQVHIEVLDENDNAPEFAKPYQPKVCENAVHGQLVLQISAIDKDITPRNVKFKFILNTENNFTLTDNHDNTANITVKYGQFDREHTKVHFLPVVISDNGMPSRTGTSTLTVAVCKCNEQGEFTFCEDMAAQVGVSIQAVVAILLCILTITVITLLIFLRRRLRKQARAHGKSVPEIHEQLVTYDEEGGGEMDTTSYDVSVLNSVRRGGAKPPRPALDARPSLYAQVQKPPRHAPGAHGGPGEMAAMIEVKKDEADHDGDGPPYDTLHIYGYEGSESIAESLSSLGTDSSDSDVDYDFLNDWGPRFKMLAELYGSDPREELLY

binding [1]: binds
Molecule: β-catenin (from UniProt P35222 1-781)

binding [2]: binds
B1: β-catenin, P35222 1-781 (protein)
chain: MATQADLMELDMAMEPDRKAAVSHWQQQSYLDSGIHSGATTTAPSLSGKGNPEEEDVDTSQVLYEWEQGFSQSFTQEQVADIDGQYAMTRAQRVRAAMFPETLDEGMQIPSTQFDAAHPTNVQRLAEPSQMLKHAVVNLINYQDDAELATRAIPELTKLLNDEDQVVVNKAAVMVHQLSKKEASRHAIMRSPQMVSAIVRTMQNTNDVETARCTAGTLHNLSHHREGLLAIFKSGGIPALVKMLGSPVDSVLFYAITTLHNLLLHQEGAKMAVRLAGGLQKMVALLNKTNVKFLAITTDCLQILAYGNQESKLIILASGGPQALVNIMRTYTYEKLLWTTSRVLKVLSVCSSNKPAIVEAGGMQALGLHLTDPSQRLVQNCLWTLRNLSDAATKQEGMEGLLGTLVQLLGSDDINVVTCAAGILSNLTCNNYKNKMMVCQVGGIEALVRTVLRAGDREDITEPAICALRHLTSRHQEAEMAQNAVRLHYGLPVVVKLLHPPSHWPLIKATVGLIRNLALCPANHAPLREQGAIPRLVQLLVRAHQDTQRRTSMGGTQQQFVEGVRMEEIVEGCTGALHILARDVHNRIVIRGLNTIPLFVQLLYSPIENIQRVAAGVLCELAQDKEAAEAIEAEGATAPLTELLHSRNEGVATYAAAVLFRMSEDKPQDYKKRLSVELTSSLFRTEPMAWNETADLGLDIGAQGEPLGYRQDDPSYRSFHSGGYGQDALGMDPMMEHEMGGHHPGADYPVDGLPDLGHAQDLMDGLPPGDSNQLAWFDTDL
